PubChem BioAssay AID1224830 | NIAID, 2016

Assay: 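Host factors that control LPS-induced TNF expression in human macrophages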 (primary screen)
System: human THP-1 monocytic leukaemia cells, TNF dual-luciferase reporter clone, PMA-differentiated to macrophage-like cells
Knock-down reagent: siRNA pool against human genes, 50 nM
Time to read-out: LPS for 4 h, given about 3 days after siRNA transfection
Treatment: bacterial LPS (TLR4 ligand), 10 ng/ml
Measured: 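TNF firefly reporter luminescence divided by renilla, normalised to the plate median, then turned into a robust z-score for each replicate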
Direction: TNF reporter robust z-score: higher = stronger TNF reporter response to LPS
Call rule: 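Each well counts as active if its z-score is over 2.8 or under -1.5; controls are left without a call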
The whole screen tested about 18,000 reagents; below is an unselected part. About 2,900 of all reagents (16%) count as active. 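Calls are made per well; low scores hint the gene aids the LPS response, high scores that it dampens it.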 Repeated entries: four replicate wells of each siRNA pool.

| target gene | TNF reporter robust z-score | Call |
| --- | --- | --- |
| TMEM59L (transmembrane protein 59 like) | -1.09 | inactive |
| TMEM59L (transmembrane protein 59 like) | 0.58 | inactive |
| TMEM59L (transmembrane protein 59 like) | -0.04 | inactive |
| TMEM59L (transmembrane protein 59 like) | -0.18 | inactive |
| OR52W1 (olfactory receptor family 52 subfamily W member 1) | 0.43 | inactive |
| OR52W1 (olfactory receptor family 52 subfamily W member 1) | 0.65 | inactive |
| OR52W1 (olfactory receptor family 52 subfamily W member 1) | 0.63 | inactive |
| OR52W1 (olfactory receptor family 52 subfamily W member 1) | -0.33 | inactive |
| CXCR1 (C-X-C motif chemokine receptor 1) | 1.21 | inactive |
| CXCR1 (C-X-C motif chemokine receptor 1) | 1.37 | inactive |
| CXCR1 (C-X-C motif chemokine receptor 1) | 2.21 | inactive |
| CXCR1 (C-X-C motif chemokine receptor 1) | 2.1 | inactive |
| RNF4 (ring finger protein 4) | -0.07 | inactive |
| RNF4 (ring finger protein 4) | 0.64 | inactive |
| RNF4 (ring finger protein 4) | 0.25 | inactive |
| RNF4 (ring finger protein 4) | 0.35 | inactive |
| LIPM (lipase family member M) | -0.2 | inactive |
| LIPM (lipase family member M) | -1.01 | inactive |
| LIPM (lipase family member M) | -1.07 | inactive |
| LIPM (lipase family member M) | 0.02 | inactive |
| NOS1AP (nitric oxide synthase 1 adaptor protein) | 3.25 | active |
| NOS1AP (nitric oxide synthase 1 adaptor protein) | 0.53 | inactive |
| NOS1AP (nitric oxide synthase 1 adaptor protein) | -0.99 | inactive |
| NOS1AP (nitric oxide synthase 1 adaptor protein) | 0.42 | inactive |
| CREG1 (cellular repressor of E1A stimulated genes 1) | -0.97 | inactive |
| CREG1 (cellular repressor of E1A stimulated genes 1) | -0.16 | inactive |
| CREG1 (cellular repressor of E1A stimulated genes 1) | 0.5 | inactive |
| CREG1 (cellular repressor of E1A stimulated genes 1) | 1.04 | inactive |
| NCBP3 (nuclear cap binding subunit 3) | 0.4 | inactive |
| NCBP3 (nuclear cap binding subunit 3) | 0.09 | inactive |
| NCBP3 (nuclear cap binding subunit 3) | -0.55 | inactive |
| NCBP3 (nuclear cap binding subunit 3) | 0.64 | inactive |
| ZNF106 (zinc finger protein 106) | 0.08 | inactive |
| ZNF106 (zinc finger protein 106) | 0.41 | inactive |
| ZNF106 (zinc finger protein 106) | -0.08 | inactive |
| ZNF106 (zinc finger protein 106) | 0.49 | inactive |
| GPN2 (GPN-loop GTPase 2) | -0.17 | inactive |
| GPN2 (GPN-loop GTPase 2) | 1.01 | inactive |
| GPN2 (GPN-loop GTPase 2) | 1.09 | inactive |
| GPN2 (GPN-loop GTPase 2) | 0.23 | inactive |
| PIAS3 (protein inhibitor of activated STAT 3) | -0.35 | inactive |
| PIAS3 (protein inhibitor of activated STAT 3) | 0.49 | inactive |
| PIAS3 (protein inhibitor of activated STAT 3) | 0.21 | inactive |
| PIAS3 (protein inhibitor of activated STAT 3) | 0.99 | inactive |
| OR5B12 (olfactory receptor family 5 subfamily B member 12) | 1.38 | inactive |
| OR5B12 (olfactory receptor family 5 subfamily B member 12) | -0.33 | inactive |
| OR5B12 (olfactory receptor family 5 subfamily B member 12) | 1.24 | inactive |
| OR5B12 (olfactory receptor family 5 subfamily B member 12) | 1.98 | inactive |
| ITGA6 (integrin subunit alpha 6) | 3.37 | active |
| ITGA6 (integrin subunit alpha 6) | 2.66 | inactive |
| ITGA6 (integrin subunit alpha 6) | 0 | inactive |
| ITGA6 (integrin subunit alpha 6) | 1.93 | inactive |
| DDHD1 (DDHD domain containing 1) | 1.37 | inactive |
| DDHD1 (DDHD domain containing 1) | 1.65 | inactive |
| DDHD1 (DDHD domain containing 1) | 0.4 | inactive |
| DDHD1 (DDHD domain containing 1) | -0.11 | inactive |
| PPP1R3D (protein phosphatase 1 regulatory subunit 3D) | -0.31 | inactive |
| PPP1R3D (protein phosphatase 1 regulatory subunit 3D) | -0.36 | inactive |
| PPP1R3D (protein phosphatase 1 regulatory subunit 3D) | -0.54 | inactive |
| PPP1R3D (protein phosphatase 1 regulatory subunit 3D) | -0.89 | inactive |
| POLR2B (RNA polymerase II subunit B) | -0.37 | inactive |
| POLR2B (RNA polymerase II subunit B) | 0.69 | inactive |
| POLR2B (RNA polymerase II subunit B) | -0.01 | inactive |
| POLR2B (RNA polymerase II subunit B) | 0.15 | inactive |
| AXDND1 (axonemal dynein light chain domain containing 1) | -1.03 | inactive |
| AXDND1 (axonemal dynein light chain domain containing 1) | -1.48 | inactive |
| AXDND1 (axonemal dynein light chain domain containing 1) | -1.18 | inactive |
| AXDND1 (axonemal dynein light chain domain containing 1) | -0.5 | inactive |
| SYNC (syncoilin, intermediate filament protein) | -1.21 | inactive |
| SYNC (syncoilin, intermediate filament protein) | -1.2 | inactive |
| SYNC (syncoilin, intermediate filament protein) | -0.67 | inactive |
| SYNC (syncoilin, intermediate filament protein) | -0.68 | inactive |
| SFXN5 (sideroflexin 5) | -0.58 | inactive |
| SFXN5 (sideroflexin 5) | -0.32 | inactive |
| SFXN5 (sideroflexin 5) | 1.93 | inactive |
| SFXN5 (sideroflexin 5) | 0.16 | inactive |
